In doi:10.1101/2023.09.27.559872:
Results are given in words; binding and its absence hold for the method and conditions named. In cells and extracts the contact can be indirect. Where a sequence is shown, tags or fusion partners need not be part of it.

Biological target: T1, FLAG-BirA*-IBTK (UniProt Q9P2D0)
T1 sequence: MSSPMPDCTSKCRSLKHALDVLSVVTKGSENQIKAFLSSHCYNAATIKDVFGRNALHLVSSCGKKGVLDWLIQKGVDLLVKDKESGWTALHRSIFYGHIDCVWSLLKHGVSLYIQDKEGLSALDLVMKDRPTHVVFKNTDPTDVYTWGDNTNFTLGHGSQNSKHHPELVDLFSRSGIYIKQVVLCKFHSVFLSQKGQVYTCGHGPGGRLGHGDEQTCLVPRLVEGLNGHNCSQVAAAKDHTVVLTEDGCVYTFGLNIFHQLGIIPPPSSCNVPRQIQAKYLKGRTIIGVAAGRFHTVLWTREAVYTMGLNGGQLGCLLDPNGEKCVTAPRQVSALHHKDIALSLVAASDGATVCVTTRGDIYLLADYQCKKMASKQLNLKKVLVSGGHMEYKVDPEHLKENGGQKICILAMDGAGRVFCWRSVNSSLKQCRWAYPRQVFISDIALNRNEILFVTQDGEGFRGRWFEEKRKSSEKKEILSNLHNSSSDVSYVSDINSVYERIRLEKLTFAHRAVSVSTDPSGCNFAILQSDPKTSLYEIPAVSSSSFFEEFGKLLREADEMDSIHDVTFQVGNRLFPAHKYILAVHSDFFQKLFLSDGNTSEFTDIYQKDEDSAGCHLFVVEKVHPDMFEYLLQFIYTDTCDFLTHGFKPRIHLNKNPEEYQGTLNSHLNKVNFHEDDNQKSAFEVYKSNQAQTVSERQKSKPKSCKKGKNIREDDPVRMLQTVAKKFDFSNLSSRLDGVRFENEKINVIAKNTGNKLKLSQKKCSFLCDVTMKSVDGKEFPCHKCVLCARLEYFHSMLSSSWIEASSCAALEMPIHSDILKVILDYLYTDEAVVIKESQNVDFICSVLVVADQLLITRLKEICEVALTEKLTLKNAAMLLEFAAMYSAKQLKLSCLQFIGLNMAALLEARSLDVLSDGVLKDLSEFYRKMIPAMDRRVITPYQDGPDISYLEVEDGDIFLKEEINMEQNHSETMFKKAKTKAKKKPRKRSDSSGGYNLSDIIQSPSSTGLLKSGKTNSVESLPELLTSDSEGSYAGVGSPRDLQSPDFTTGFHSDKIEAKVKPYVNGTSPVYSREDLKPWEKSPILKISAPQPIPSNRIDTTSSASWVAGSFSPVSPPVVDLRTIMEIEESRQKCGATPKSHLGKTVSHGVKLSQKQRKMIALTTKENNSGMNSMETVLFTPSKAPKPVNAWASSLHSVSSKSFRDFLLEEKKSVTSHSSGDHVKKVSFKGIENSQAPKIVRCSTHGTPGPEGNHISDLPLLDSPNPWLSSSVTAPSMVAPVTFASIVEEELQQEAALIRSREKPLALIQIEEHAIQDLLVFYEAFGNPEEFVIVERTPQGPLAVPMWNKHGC
Test: co-IP

binding: no binding
Substance: eIF4G, endogenous (human (endogenous in Flp-In T-REx 293))
